Measurements reported in PubChem BioAssay AID504764 (Drosophila RNAi Screening Center, 2011)

Aim: 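Genome-wide screen for regulators of Notch-driven gene expression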 (primary screen)
Cells: Drosophila Kc167 cells
Reagents: long dsRNA against Drosophila genes
Duration: about 5 days (4 days dsRNA, then 24 h after transfection)
Treatment: transfection of constitutively active membrane-tethered Notch lacking the extracellular domain, read 24 h later
Measured: 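Light from a Notch-responsive E(spl)m3 luciferase reporter under active Notch, with control-promoter and no-Notch reporter wells to normalise; raw counts from paired wells a and b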
Direction: induced reporter light, run 1, well a and induced reporter light, run 1, well b: higher = more light from the Notch target reporter with active Notch; control promoter light, run 1, well a and control promoter light, run 1, well b: higher = more light from the viral control promoter (cell number, transfection, viability); uninduced reporter light, run 1, well a: higher = more light from the Notch target reporter without active Notch
Active means: 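Hit if the duplicate-averaged log2 ratio of induced to control-promoter light gives a plate-wise z beyond ±2, or induced to uninduced beyond ±1.8; weak-control or discordant-duplicate wells dropped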
Meaning of the calls: active = modifier hit (raised or lowered Notch signal); inactive = not a hit
In all, the deposit lists about 22,000 reagents; below is a random part of those with a known target gene and a result. Of all reagents, 403 (1.9%) were called active. 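Unnormalised raw counts per well; ratio z-scores behind the hit calls and whether each hit raises or lowers signal are not deposited.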 A number with no mark means an inactive call. The numbers tell different reagents against one gene apart. Names joined by + are all predicted targets of the reagent. Not stated in the record: the amount of reagent.

predicted target | dsRNA no. | induced reporter light, run 1, well a | induced reporter light, run 1, well b | control promoter light, run 1, well a | control promoter light, run 1, well b | uninduced reporter light, run 1, well a
CG10151 | 1 | 73265 | 66085 | 52590 | 61245 | 7755
AOX4 (Aldehyde oxidase 4) | 1 | 2.33e5 | 2.43e5 | 2.15e5 | 2.01e5 | 15330
Ir60b (Ionotropic receptor 60b) | 1 | 1.90e5 | 1.46e5 | 1.61e5 | 1.69e5 | 12665
CG31759 | 1 | 1.41e5 | 1.42e5 | 1.85e5 | 1.83e5 | 9395
CG12325 | 1 | 1.20e5 | 1.30e5 | 1.18e5 | 1.01e5 | 9820
RpL39 (Ribosomal protein L39) | 1 | 1.53e5 | 1.32e5 | 1.37e5 | 1.28e5 | 10530
Rab3-GAP (Rab3 GTPase activating protein) | 1 | 2.08e5 | 2.11e5 | 1.52e5 | 1.77e5 | 16505
CG11060 | 1 | 78630 | 76805 | 63410 | 61495 | 5890
CG30440 | 1 | 1.24e5 | 1.43e5 | 1.55e5 | 1.91e5 | 8655
CG30440 | 2 | 1.78e5 | 1.91e5 | 1.71e5 | 1.74e5 | 12628
CG30440 | 3 | 2.24e5 | 1.91e5 | 1.76e5 | 1.88e5 | 15320
ftz (fushi tarazu) | 1 | 71095 | 73900 | 60125 | 59590 | 4500
fd59A (forkhead domain 59A) | 1 | 2.10e5 | 2.47e5 | 2.06e5 | 2.02e5 | 16320
gb (genderblind) | 1 | 2.27e5 | 2.48e5 | 3.01e5 | 3.05e5 | 17660
CG13438 | 1 | 1.11e5 | 1.59e5 | 2.85e5 | 2.30e5 | 9860
Elba2 (Early boundary activity 2) | 1 | 1.64e5 | 2.12e5 | 1.85e5 | 1.82e5 | 17435
CG8679 | 1 | 55235 | 37000 | 40255 | 54880 | 2530
CG12895 | 1 | 1.68e5 | 2.01e5 | 2.47e5 | 1.93e5 | 15875
twy (twitchy) | 1 | 1.37e5 | 1.27e5 | 1.64e5 | 1.45e5 | 7600
Coq4 + frc | 1 | 1.39e5 | 1.00e5 | 2.04e5 | 1.47e5 | 4815
Coq4 + frc | 2 | 2.40e5 | 1.95e5 | 2.91e5 | 2.73e5 | 7850
Octbeta2R (Octopamine beta2 receptor) | 1 | 52100 | 61945 | 51195 | 42845 | 4025
Octbeta2R (Octopamine beta2 receptor) | 2 | 56285 | 38965 | 24410 | 22380 | 4885
CG32022 | 1 | 3.51e5 | 2.95e5 | 3.46e5 | 3.53e5 | 12385
ranshi | 1 | 83420 | 87525 | 58130 | 42915 | 6410
CG33232 (retired record) | 1 | 88825 | 84405 | 2.08e5 | 2.26e5 | 8335
CG33232 (retired record) | 2 | 93780 | 1.06e5 | 1.12e5 | 1.15e5 | 7040
trem (trade embargo) | 1 | 1.60e5 | 1.47e5 | 2.11e5 | 2.19e5 | 11305
hll (heimdall) | 1 | 2.09e5 | 2.57e5 | 1.93e5 | 2.05e5 | 16175
CG15710 | 1 | 1.69e5 | 1.45e5 | 1.38e5 | 1.51e5 | 14080
CG8908 | 1 | 38390 | 34445 | 31070 | 42755 | 4178
CG11997 | 1 | 1.01e5 | 1.29e5 | 1.05e5 | 1.09e5 | 7760
spd-2 (spindle defective 2) | 1 | 1.47e5 | 1.60e5 | 1.36e5 | 1.33e5 | 11100
GstD9 (Glutathione S transferase D9) | 1 | 83115 | 85910 | 86640 | 46940 | 6215
